Primary screen of a compound library

By UniProt entry, the sequences of proteins in these tests, tags left out. Residues count along the entry.
UniProt Q8IDJ8, 1-583: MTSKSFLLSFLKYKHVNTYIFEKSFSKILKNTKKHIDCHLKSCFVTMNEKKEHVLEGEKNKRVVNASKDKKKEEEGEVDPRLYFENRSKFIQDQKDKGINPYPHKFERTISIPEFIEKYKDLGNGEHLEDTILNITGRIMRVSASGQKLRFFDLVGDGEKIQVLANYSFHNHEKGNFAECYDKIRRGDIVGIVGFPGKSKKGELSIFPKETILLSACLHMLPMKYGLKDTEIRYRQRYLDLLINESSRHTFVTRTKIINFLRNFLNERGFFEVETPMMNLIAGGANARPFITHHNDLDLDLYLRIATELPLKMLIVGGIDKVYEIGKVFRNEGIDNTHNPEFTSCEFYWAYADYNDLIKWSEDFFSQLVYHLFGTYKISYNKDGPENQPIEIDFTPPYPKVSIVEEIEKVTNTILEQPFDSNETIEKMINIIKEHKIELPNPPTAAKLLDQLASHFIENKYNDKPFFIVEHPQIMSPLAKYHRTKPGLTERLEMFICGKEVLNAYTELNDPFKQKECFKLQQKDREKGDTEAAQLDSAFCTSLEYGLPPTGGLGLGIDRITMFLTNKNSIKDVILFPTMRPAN
UniProt P9WFT3, whole entry: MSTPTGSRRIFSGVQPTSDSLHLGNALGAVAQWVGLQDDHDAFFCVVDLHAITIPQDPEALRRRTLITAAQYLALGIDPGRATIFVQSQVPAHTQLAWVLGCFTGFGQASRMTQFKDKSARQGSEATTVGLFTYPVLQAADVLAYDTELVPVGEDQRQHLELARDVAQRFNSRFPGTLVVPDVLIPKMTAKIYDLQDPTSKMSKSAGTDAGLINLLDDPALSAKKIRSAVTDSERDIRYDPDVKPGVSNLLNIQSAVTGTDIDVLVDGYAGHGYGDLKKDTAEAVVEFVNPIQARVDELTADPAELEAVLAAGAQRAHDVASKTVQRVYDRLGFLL

Source: ChEMBL document CHEMBL3988442, “University of Dundee, Small-Polar-MMV Screening Library” (2021).

A: 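Enzyme assay of the cytosolic lysyl-tRNA synthetase in 384-well plates, read by luminescence. Target: Lysine-tRNA ligase, Plasmodium falciparum 3D7 (UniProt Q8IDJ8). Tested at 30 µM. Higher reads as stronger inhibition, judged from the few compounds that gave an IC50. About 69,000 compounds were tested under these conditions; 0.071% (about 49) showed 50% or more at least once.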
B: 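Tryptophan-tRNA ligase, Mycobacterium tuberculosis (UniProt P9WFT3). Enzyme assay of tryptophanyl-tRNA synthetase; the read-out is not stated. Tested at 10 µM. Higher most likely means stronger inhibition; the record gives no direction and few retests gave an IC50. About 65,000 compounds were tested under these conditions; 0.098% (about 64) showed 50% or more at least once.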
C: 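Cell assay of Leishmania donovani living inside macrophages; the read-out is not stated. Tested at 30 µM. The record gives no direction; compounds that gave an IC50 in retests scored well above the rest, so higher reads as stronger inhibition. About 69,000 compounds were tested under these conditions; 1.5% (about 1,000) showed 50% or more at least once.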

Each number is a percent effect as filed.
How 0% and 100% were set is not recorded. Most values in the screen are low, and negative values occur.
This is an unselected part of the compounds tested.
Two or more numbers in one place are separate tests of the same structure; such repeats can differ widely.
A dash means the value is not listed here; it may have been measured.

| SMILES | A | B | C |
|---|---|---|---|
| `O=C(O)C(F)(F)F.[H][C@]12CC[C@@]3(N=C(CC)N(C)C3=O)[C@@]1([H])CN(Cc1ccc(Cl)cc1)C2` | - | - | 33.11 |
| `CN(Cc1ccc([S+](C)[O-])cc1)c1cncc(Cl)n1` (centres undefined) | 4.241 | 4.364 | 22.71 |
| `Cc1ccc(-n2nnc(C(=O)NS(C)(=O)=O)c2C2CC2)cc1` | 0.7723 | -0.8746 | 16.65 |
| `CC(=O)NCc1ccc(S(=O)(=O)NC(=O)c2ccc3c(c2)COC3)cc1` | 5.954 | 1.786 | -1.143 |
| `c1ccc2c(c1)SCCC2NCc1ccc(N2CCOCC2)cc1` (centres undefined) | 7.95 | 0.854 | - |
| `O=C(O)C(F)(F)F.[H][C@@]12COC[C@@H](CC(=O)N3CCOCC3)[C@]1([H])CN(Cc1ccc(F)cc1)C2` | - | - | -26.01 |
| `N#Cc1cccc(C(=O)N2CCc3c(COCC4CC4)cncc3C2)c1.O=C(O)C(F)(F)F` | - | - | 16.78 & 20.1 |
| `CN(C(=O)Cn1nnnc1C(C)(C)C)c1ccccc1` | 4.267 | 3.852 | 5.734 |
| `CC(C)N1CCCC(c2cc(C(F)(F)F)nc3nccn23)C1` (centres undefined) | 0.1554 | -9.554 | -4.578 |
| `CNS(=O)(=O)CCNC(=O)[C@@]12CNC[C@@H]1CN(C1CCCC1)C2` | -2.721 | -8.845 | - |
| `CN(Cc1ccncc1)C1COC2(CCN(Cc3cccs3)CC2)C1` (centres undefined) | 2.382 | -2.394 | - |
| `COCCCN(C)C1CCCN(Cc2noc(C3CC3)n2)C1` (centres undefined) | 1.371 | 2.893 | 11.55 |
| `COc1cc(C)ccc1OCCC(=O)N1CCCC(n2cncn2)C1` (centres undefined) | -3.915 | -1.511 | 25.47 |
| `Cl.O=C(C1CC1)N1CC2(CCNCC2)C1` | - | - | 10.73 |
| `Cc1cncc(C2CCN(Cc3ccncc3)CC2)n1` | 1.348 | 0.5875 | 27.78 |
| `O=C(Nc1ccccc1)[C@H]1O[C@H](CCN2CCNCC2)CC[C@@H]1O` | 6.836 | -4.806 | 11.35 |
| `COc1ccnc(N2CCN(C(=O)c3csc(C)n3)CC2)n1` | -0.5451 | -1.319 | 9.273 |
| `COCCN1CCN(S(C)(=O)=O)Cc2ccc(C)nc21` | 2.32 | -7.319 | - |
| `O=C1CN(c2cc(-c3ccccc3F)nc3ccnn23)CCCN1` | 6.521 | 1.016 | 20.65 |
| `CSCCC(=O)N1CCCC1c1ccsc1` (centres undefined) | -3.811 | 5.687 | -8.624 |
| `CC(C)(C)S(=O)(=O)c1ccc(N2CCC(n3cccn3)CC2)cn1` | 4.951 | -4.958 | 21.86 |
| `O=C(O)C(F)(F)F.O=C(O)C(F)(F)F.[H][C@@]12CN(Cc3ccoc3)CCO[C@]1([H])CN(c1ccc(C)nn1)C2` | - | - | -4.879 |
| `CN(C)C(=O)N1CC[C@@H](O)[C@@H]1Cc1cnn(C)c1` | 0.2282 | 2.311 | 20.5 & -5.243 |
| `Cn1cc(CN2CCCN(C(=O)c3cn4ccccc4n3)CC2)cn1` | 5.978 | -3.638 | 19.9 |
| `Cc1ccc(S(=O)(=O)N2CCc3nc(C4CCNCC4)ncc3C2)cc1` | -1.125 | 3.428 | - |
| `Cc1ncccc1OC1(C(=O)NCCCN2CCOCC2)CCNCC1` | 3.885 | -6.269 | -0.9974 |
| `CCc1nccn1C1CCCN(C(=O)c2cc3nc(C)ccc3o2)C1` (centres undefined) | -1.854 | -0.07825 | 3.953 |
| `Cc1ccc(CN(CCCN(C)C)Cc2cnc(N(C)C)nc2)o1` | 5.024 | 2.375 | - |
| `CN1CC[C@@H]2[C@@H](CO[C@H]2CNC(=O)c2nccn2C)C1` | 1.355 | -5.151 | - |
| `Cn1cccc1C(=O)NCc1cnc2n1CCN(C(=O)c1ccoc1)C2` | 6.047 | 4.719 | 19.72 |
| `CSc1ccccc1C(=O)N1C[C@@H](N(C)C)[C@H](c2ccc(C)cc2)C1` | 3.67 | -0.2472 | -12.25 |
| `Cc1cc(-n2cncn2)n2ncnc2n1` | 7.037 | - | 2.6 |
| `CN(CCc1ccccn1)[C@@H]1CCN(c2cc(C(N)=O)ccn2)C[C@H]1O` | -2.36 | 1.49 | 15.89 |
| `Cc1cc(-c2ccnn2C)nc(C2CCCN(S(C)(=O)=O)C2)n1` (centres undefined) | -0.5519 | -5.013 | 21.62 |
| `NC(=O)CSc1nnc2n1N=CN(c1ccccc1F)C2` | 3.315 | 0.4078 | -9.98 |
| `Cc1noc(C)c1C(=O)N1Cc2ncn(C)c2C(COCC2CC2)C1` (centres undefined) | 5.003 | - | - |
| `O=C(O)[C@H]1C[C@H](C(=O)NC2CC2)CN(Cc2ccc(-c3cc[nH]n3)s2)C1` | 3.656 | -1.554 | 2.569 |
| `[H][C@]12CC[C@]([H])(CN(C(=O)N(C)C)C1)N(Cc1nnc(C3CC3)o1)C2` | - | - | 9.936 |
| `CC(C)CN1C(=O)C2(CCN(CC3CCOCC3)C2)c2ccccc21.O=C(O)C(F)(F)F` (centres undefined) | - | - | 64.12 |
| `CN1CCN(Cc2cn3c(n2)CNCC3)CC1` | -12.18 | 26.4 | - |
| `COc1cccn(CC(=O)N2CCCC3(CCCO3)CC2)c1=O` (centres undefined) | 8.572 | 0.311 | 26.88 |
| `COc1ccccc1CC1CCCN(C(=O)c2cc[nH]n2)C1` (centres undefined) | 3.968 | -4.913 | 33.33 |
| `COC(=O)CCCNC(=O)c1cc(COc2cncc(Cl)c2)on1` | 1.283 | -10.88 | 11.63 |
| `CNc1ccc(C)cc1C(=O)N[C@H]1C[C@H]2CN(C)CCN2C1` | 1.168 | -0.4461 | - |
| `Cc1ccccc1CNC(=O)c1ccccc1-n1cc(CN)cn1` | 2.335 | - | 10.16 |
| `CNC(=O)C1(CCCc2ccccn2)CN(Cc2nccn2C)C1` | 1.659 | -6.802 | 15.21 |
| `CCC(CO)NC(=O)NCc1cc(C#N)ccc1F` (centres undefined) | 3.066 | -2.58 | -3.35 |
| `Nc1nc(SCc2ccc3c(c2)OCO3)ns1` | 2.138 | -6.413 | 4.808 |
| `CC(C)n1cc(CN(Cc2ccsc2)CC2CCCO2)cn1` (centres undefined) | -0.9643 | -4.49 | -16.9 |
| `CN(Cc1ccncn1)c1nccc(CCC(F)(F)F)n1` | 0.03615 | -0.3096 | 4.688 |
| `COC1CCN(C(=O)CCn2cccn2)CC1` | -0.6082 | -4.548 | 13.39 |
| `CN(C)c1ccc(CC2COCCN(Cc3nccn3C)C2)nn1` (centres undefined) | 2.967 | - | 18.62 & 3.792 |
| `Fc1ccc2c(c1)C(NCc1nnc3n1CCCCC3)CCCO2` (centres undefined) | 3.346 | 1.006 | -9.767 |
| `COC1COC2(CCN(Cc3ccccc3F)CC2)C1` (centres undefined) | 2.07 | 2.351 | - |
| `Cc1cc(NC(=O)C(c2cccc(F)c2)N2CCOCC2)ccn1` (centres undefined) | 5.769 | 0.3178 | 18.36 |
| `CC(=O)N1CCN(c2cc(CCN)nc(C3CC3)n2)CC1.Cl` | - | - | -14.04 |
| `CCc1c(C(=O)N2CCN(C)[C@@H]3CS(=O)(=O)C[C@@H]32)[nH]c2ccccc12` | 0.8157 | 2.981 | - |
| `Cc1ccc(F)c(S(=O)(=O)NCc2cccc(N3CCOC3=O)c2)c1` | 4.44 | -5.444 | 8.268 |
| `Cc1cccc2c1ccn2CCC(=O)O` | 2.581 | -2.825 | 9.273 |
| `Cc1ncc(CN(C)C)c(C2CCCN2c2ncccn2)n1` (centres undefined) | 0.3966 | 2.732 | -17.5 |
| `CNC(=O)NCC(=O)Nc1ccccc1N1CCc2ccccc21` | 5.307 | -5.87 | 10.18 |
| `Cn1c(-c2ccc(F)cc2)cn2cc(C(=O)N3CCC(N)C3)nc2c1=O` (centres undefined) | 3.806 | -1.591 | 6.076 |
| `OC(CN1CCN(Cc2cc(F)cc(F)c2)CC1)C1CC1` (centres undefined) | -0.6598 | -4.222 | - |
| `O=C(CCc1ccccc1F)NC1CCCN(c2ccccn2)C1` (centres undefined) | -0.1565 | -1.106 | 10.38 |
| `COc1cccc(CN2CCc3nc(C(N)=O)sc3CC2)c1.O=C(O)C(F)(F)F` | - | - | 20.87 |
| `CN1C[C@@H]2CN(C(=O)NCc3cccc(F)c3)CCC[C@]2(C(=O)O)C1` | 1.497 | 11.71 | - |
| `c1cncc(-c2nnn3c2COCC(CNCC2CCOCC2)C3)c1` (centres undefined) | 4.421 | 3.591 | - |
| `Cc1ccc2c(c1)c(CNC(=O)C1CC(=O)N(C3CC3)C1)nn2C` (centres undefined) | 4.89 | -8.574 | 20.54 |
| `Cc1cc(C)c2c(NC(C)c3nncn3C3CCCC3)ncnc2n1` (centres undefined) | 7.837 | 0.9524 | 29.8 |
| `O=C(O)C(F)(F)F.[H][C@]12CCC[C@@H](CN(C)C)[C@@]1([H])CN(c1ncccn1)C2` | - | - | 0.02973 |
| `CSc1cccc(CN2CCC(CCC(=O)Nc3ccccc3)CC2)c1` | 0.3307 | -4.354 | 12.47 |
| `CCc1noc(CNCCn2cc(C)cn2)n1` | 1.344 | -9.15 | -4.218 |
| `CC(C)c1nn(C)c(N(C)C)c1CNCC(O)c1ccccc1` (centres undefined) | -1.596 | 1.558 | 18.49 |
| `Cn1nnc(NCc2ccc(-c3ccc(Br)cc3)o2)n1` | 13.06 | 0.25 | -31.96 |

Some entries from above, unchanged:

- Nc1nc(SCc2ccc3c(c2)OCO3)ns1 | A: 2.138%; B: -6.413%; C: 4.808%
- O=C(O)C(F)(F)F.[H][C@]12CCC[C@@H](CN(C)C)[C@@]1([H])CN(c1ncccn1)C2 | C: 0.02973%
- Cc1ncccc1OC1(C(=O)NCCCN2CCOCC2)CCNCC1 | A: 3.885%; B: -6.269%; C: -0.9974%
- O=C(Nc1ccccc1)[C@H]1O[C@H](CCN2CCNCC2)CC[C@@H]1O | A: 6.836%; B: -4.806%; C: 11.35%
- COC1CCN(C(=O)CCn2cccn2)CC1 | A: -0.6082%; B: -4.548%; C: 13.39%
- [H][C@]12CC[C@]([H])(CN(C(=O)N(C)C)C1)N(Cc1nnc(C3CC3)o1)C2 | C: 9.936%
- Cc1cc(-c2ccnn2C)nc(C2CCCN(S(C)(=O)=O)C2)n1 (centres undefined) | A: -0.5519%; B: -5.013%; C: 21.62%